In all, about 53,000 sequences went through this assay and about 3,700 (7%) were called active.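 The calls were made as follows: active = gene knockdowns whose robust z-score for IL-1 alpha signal is at least 2 or at most -2, so actives lie on both sides; inactive = the rest.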 This is one part of the list.
Assay: Components of the Cytosolic LPS Sensing Pathway: Gene Identification via Genome-wide siRNA Screen;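 also: robust z of the log signal after scaling to non-targeting control siRNA wells of the plate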
Conditions: RAW264.7 macrophages, IL-1a HTRF, actives lie on both sides, screened at 100 nM (by protocol), cells primed 5 h with Pam3CSK4 first
Outline: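 Three distinct siRNAs per gene were tested singly at 100 nM in RAW264.7 macrophages. Following Pam3CSK4 priming and 24 hour LipidA transfection, IL-1a secretion was read by HTRF.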

Sequence	z-score
GGUGACAGGUCAGAAAGUCTT against Tor1aip2	active: -2.78
GGCUAUGAAUCCAGAGCUUTT against Sun1	inactive: -0.0964
CCGUGAAUGACUCGUCCUCTT against Dhrsx	inactive: -0.095
GCCAAUAUAUCUGUGGUGUTT against Olfr1186	inactive: 0.208
GAGUGCUCUGAAAUAUUUUTT against Mup4	inactive: -0.409
GGCGCAUGCAGAGUAUCAATT against Tfap4	inactive: 0.535
CGUAGAGAUGGCGUAUGUCTT against Mpnd	inactive: 0.209
GCUAAAACAAGUUUGAAGATT against Sntg2	inactive: 0.142
GGAGUUCACGGAUCUUGAGTT against Ppp1r37	inactive: 0.226
GGCAAUGAUCUUAUUCCAATT against Akr1cl	inactive: 1.42
GAACUAAGACACAUCUUUGTT against Tnni3k	inactive: 1.61
GCAAAACUGAACAAAGUACTT against Xirp2	inactive: 0.658
CGAGUCAGACCUUGAUCUATT against Zfat	inactive: 1.03
CCAGAACUUCCCAUUAAAATT against Alg8	inactive: -0.771
GCAUCUAACUACUUGGGCCTT against Hhip	inactive: 1.18
GUUUCAGUGCAGCCAUUACTT against Olfr518	inactive: -0.747
CCCUCAGAUCUUUCAGUCUTT against Btbd16	inactive: -1.01
GCAAGAGGAACCUUUCUUGTT against Mmp17	inactive: 0.662
CCUCAGCAAAUAUAUGGCATT against Ccdc7b	inactive: 0.0117
GGUGUGUGGUUUUUAAUAATT against Abhd3	inactive: -0.692
GGACAAGAAGAACAUCAUCTT against Cfl1	inactive: 1.16
GGAUUUUUCAGGAGAUAUGTT against Ubtf	inactive: -1.07

Sequence	z-score
GGACAGAUCCCAUUCAAAUTT against Mpped1	inactive: 0.316
GGACAUACGGUUUCAUUGUTT against Ptprv	inactive: -0.527
GCAGCCAAAUUCAUCCUCATT against Tspan33	inactive: -0.552
CCCACCCUAAAUUUAGGAUTT against Opa3	inactive: 0.363
GGAUGCCAAAGCAGCUCAUTT against Epc1	inactive: -1.56
GGUGAUUUUCGAUAUACACTT against Dclre1b	inactive: 0.257
GGAAAGAAAGUUCUUUAGATT against Rbm41	inactive: 0.548
GGGAGAUCUUGACAAAUUCTT against Aplp1	active: 2.32
GGUGUCAUGAUGGAGCUGATT against Crygc	inactive: 0.862
GGAAUGGUCCCUCCAAUGATT against Prpf40b	active: 2.38
GGAAGCAGUCAGAGAAGAATT against Smim11	inactive: -0.426
GGAAAAGACUAAAAUGCUUTT against Rbm5	inactive: -0.419
GGUCCCUGCAAAGUAGAAUTT against Olfr1153	inactive: 0.534
GGUUGACAACCACCUUUUUTT against Pip4k2a	inactive: -0.563
CCUUUUUACUUCGAGAUUCTT against Socs4	inactive: -0.2
CGAUCCAAUGGAUUUCAAGTT against Col3a1	inactive: 0.0811
GGAGCAAAUAGGGUUCAUUTT against Rhox10	inactive: -1.08
GUGACAUCAACUUAAUGGATT against Klra20	inactive: 0.0605
CGUUUUUCUUAUGAUCAGGTT against Ankrd13b	inactive: -0.182
GGUUUUUACUUUGACCCUGTT against Dcaf4	inactive: 0.694
CCCGCAUGCUCUUUGUAACTT against Kansl3	inactive: -0.146
GGCUCUCAUUGAUGCAUGUTT against Cpeb4	inactive: -0.264

Sequence	z-score
GCAUGUUUUGGUGUAUAGUTT against Arl4a	inactive: -1.81
GGCUUUUGAGAGCUACCGGTT against Ell	inactive: -0.473
GCUGAUUCUUCACUUUGUGTT against Coq9	inactive: -1.03
GGGUGCUGAUGGACAAUAATT against Speer3	inactive: -1.05
GGAAUCACAUCCAGUUGGUTT against Diablo	inactive: -0.546
GGCGGUCAAUGACCUCAUATT against Ces1f	inactive: -1.17
GGAAGUUUCUGAAGGAACATT against Olfr630	inactive: -0.237
GGAUUAGGAAUUCUUGUGUTT against Oxld1	inactive: 0.22
CCAGCAAUAACAAUCAGAGTT against Lzts3	inactive: 0.528
GGCUGCAUAAAGGUGUUGATT against Cyria	inactive: 1.93
GGUGAUCACUAAACUCCAATT against Msh4	inactive: 0.116
GGCCUUUCCUCUACACCCUTT against Plb1	inactive: 1.02
ACAACAUGAUUGUCGUGGATT against Ugt1a6a	inactive: 0.831
CCUGUAGGAGUGACUUCCUTT against Crbn	inactive: 0.223
GGCUUGUUUCCACCAAUAGTT against Creb3l2	inactive: 0.88
GCCAAGUCUGCUUCACGAGTT against Nyap1	inactive: 1.82
GAAAGUGGCCGUAAAGGUGTT against Nkx3-2	inactive: -0.178
GACAAUAUCUCUGAAUGGATT against Olfr459	inactive: -0.946
GGACUAAACAGAUUCACUATT against Rnase9	active: -2.42
GCUCAGACUGGUCCCUUAATT against Ywhab	inactive: -0.337
GGAACCUGUGGAGAAGGCUTT against Zfp101	inactive: 1.16
CCACCACAGAAUGCAUUACTT against Vmn1r64	inactive: 0.102

Some of the entries so far, with bars between the fields:
Sequence | z-score
GGAGCAAAUAGGGUUCAUUTT against Rhox10 | inactive: -1.08
GUGACAUCAACUUAAUGGATT against Klra20 | inactive: 0.0605
CGUUUUUCUUAUGAUCAGGTT against Ankrd13b | inactive: -0.182
GGUUUUUACUUUGACCCUGTT against Dcaf4 | inactive: 0.694
CCCGCAUGCUCUUUGUAACTT against Kansl3 | inactive: -0.146
GGCUCUCAUUGAUGCAUGUTT against Cpeb4 | inactive: -0.264
GGCUUUUGAGAGCUACCGGTT against Ell | inactive: -0.473
GCUGAUUCUUCACUUUGUGTT against Coq9 | inactive: -1.03
GGGUGCUGAUGGACAAUAATT against Speer3 | inactive: -1.05
GGAAUCACAUCCAGUUGGUTT against Diablo | inactive: -0.546
GGCGGUCAAUGACCUCAUATT against Ces1f | inactive: -1.17
GGAAGUUUCUGAAGGAACATT against Olfr630 | inactive: -0.237
GGAUUAGGAAUUCUUGUGUTT against Oxld1 | inactive: 0.22
GGCUGCAUAAAGGUGUUGATT against Cyria | inactive: 1.93
GGUGAUCACUAAACUCCAATT against Msh4 | inactive: 0.116
GGCCUUUCCUCUACACCCUTT against Plb1 | inactive: 1.02
ACAACAUGAUUGUCGUGGATT against Ugt1a6a | inactive: 0.831
CCUGUAGGAGUGACUUCCUTT against Crbn | inactive: 0.223
GGCUUGUUUCCACCAAUAGTT against Creb3l2 | inactive: 0.88
GAAAGUGGCCGUAAAGGUGTT against Nkx3-2 | inactive: -0.178
GACAAUAUCUCUGAAUGGATT against Olfr459 | inactive: -0.946
GGACUAAACAGAUUCACUATT against Rnase9 | active: -2.42
GCUCAGACUGGUCCCUUAATT against Ywhab | inactive: -0.337
GGAACCUGUGGAGAAGGCUTT against Zfp101 | inactive: 1.16
CCACCACAGAAUGCAUUACTT against Vmn1r64 | inactive: 0.102

Additional results

Sequence	z-score
GGAGGACAAUGGCUAAUAGTT against Fitm2	inactive: 0.7
GGAUGUUGAUUUUCAUGGUTT against Grpel2	inactive: 1.13
GCUUCUAACUACACAGACUTT against Cd63	inactive: -0.216
CCAGUUUGUACCAUUAUAGTT against Sspo	inactive: 0.309
GGACACAAAGAAGAAGAGGTT against Tarsl2	inactive: 0.707
CCAGCAAAUGCAGCACAUCTT against Vmn1r180	inactive: 0.273
GGAUAACUGUAACAGCCCGTT against Ly6g6c	active: -2.12
GGAAGAGGUGGAGUUUGUGTT against Pla2g4e	inactive: -1.19
GCCUGUGGGAACUGACUAATT against 4931406H21Rik	inactive: -0.727
GGUCCUGAAGAUACCAUCUTT against Olfr1377	inactive: -0.404
GGAGGUGAAACCAUAAAAATT against Fubp1	inactive: 0.388
CCAGUUUCAGAUCAGAUUATT against Zfp747	inactive: 0.729
CGUAAUCAGUGCAGUAAACTT against Zfp781	inactive: -0.118
GCUAUAGACAAGGAGAGUATT against Galnt6	inactive: 0.62
GGUGCUGUUCCAUUUCUAUTT against Dnaaf6	inactive: -0.842
GGAUCAUAAAGUCAAAGCUTT against Vmn1r185	inactive: -0.302
CCAUCCUUGUUUUGUUAAUTT against Fas	inactive: 0.389
CGCGAGUUUUUCUUUAAUGTT against Hoxd11	inactive: 0.952
GCAGAGGCUCGUCCAUAUATT against Dnpep	inactive: -0.205
GGGAACCUUACUGUGUUAUTT against Gpr85	inactive: 0.477
GGACGUGUGGCUGUUGACATT against Sdc1	inactive: -0.138
GGAAUCUCGGAGGAAAACUTT against Hyou1	inactive: 1.99

Sequence	z-score
GGCCUGCUAUCGUUCAGAATT against Mkln1	inactive: -0.698
GGUAUUUGAUUUCACCUUUTT against Akr1a1	inactive: 0.895
GGUCAACAUCACCUUCAAUTT against Scarb1	inactive: -0.864
GGGCUUGGAGAGAAAACCATT against Snupn	inactive: -0.773
GGGUUGAAAUCACUAUUGATT against Map10	inactive: 1.34
GCUCAUGGGUAUGAUCAAUTT against Sox5	inactive: -0.996
CCUGCGUACGAAUUAAAGGTT against Pih1d2	inactive: -0.108
GGAUACAUGUGGUGCCAAUTT against Banf1	inactive: -0.529
GGCUUACCUGAACUUUCUGTT against Degs2	inactive: -0.381
GGAUGCUCAUGCUAAGCAGTT against Krt7	inactive: 0.547
CCUGAUAAUGAAUAACUCGTT against Stard3nl	inactive: 0.19
CCUCGGAUUGUUCAGACCUTT against Plxna4	inactive: 0.141
CGAUGCAACUGGAAAACUCTT against Riok1	inactive: -0.911
GGCAAAAUCGUGAAAAUUCTT against Vwf	inactive: -0.144
GGGCUUCACCAUUAUCAUUTT against Ercc2	inactive: 0.583
CCCUCUCCAAUAUUCUUUATT against Olfr1116	inactive: 0.943
GCUGCACGGUGAGUUUAAATT against Gpm6b	inactive: 1.21
CGAGACUAACCUUUAGUUATT against Tmem71	inactive: 1.19
GGAGAGAAAGAAUUUCAUCTT against Chordc1	inactive: 0.185

— PubChem BioAssay AID1508600 (Functional Genomics Laboratory (NCATS/FGL), 2020)
